Record: PubChem BioAssay AID504808 (Drosophila RNAi Screening Center, 2011)

Purpose: 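Chromatin factors that keep E2F targets switched off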 (primary screen)
Cell system: Drosophila S2 cells
Reagent: long dsRNA against Drosophila genes
Measurement: 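Dual luciferase plate measurements; E2F-specific signal taken as firefly over Renilla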
Direction: E2F firefly: higher = more E2F reporter activity; Renilla normaliser: higher = more normaliser reporter signal
Rule for the call: 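Called active if the normalised E2F reporter went up by over 50%; the cutoff is arbitrary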
The deposit covers about 21,000 reagents; shown is a random part of those that have a named target and a result. Over the whole deposit, 18 (0.084%) are marked active. 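Raw counts without plate normalisation, one of two replicates; the ratio scores behind the calls were not deposited.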 A plus sign joins genes that one reagent is predicted to hit. The record does not give: the amount of reagent, the time to read-out.

What is on record for Gr59b (Gustatory receptor 59b) [SID104183971]?
E2F firefly, rep 1: 1.02e5; Renilla normaliser, rep 1: 4424; outcome: inactive

Which result is listed for Sfxn1-3 (Sideroflexin 1/3) [SID104191975]?
E2F firefly, rep 1: 1.42e5; Renilla normaliser, rep 1: 7833; outcome: inactive

What did the screen give for Pp1-87B (Protein phosphatase 1 at 87B) [SID104196586]?
E2F firefly, rep 1: 59909; Renilla normaliser, rep 1: 3814; outcome: inactive

For CG4882 [SID104184287], what was measured?
E2F firefly, rep 1: 99259; Renilla normaliser, rep 1: 4458; outcome: inactive

What did the screen give for DAAM (Dishevelled Associated Activator of Morphogenesis) [SID104198271]?
E2F firefly, rep 1: 51166; Renilla normaliser, rep 1: 2815; outcome: inactive

Which result is listed for nrv1 (nervana 1) [SID104183174]?
E2F firefly, rep 1: 88722; Renilla normaliser, rep 1: 3757; outcome: inactive

What did the screen give for THADA [SID104199467]?
E2F firefly, rep 1: 1.62e5; Renilla normaliser, rep 1: 6058; outcome: inactive

Which result is listed for CG11779 + CG5835 [SID104195678]?
E2F firefly, rep 1: 1.31e5; Renilla normaliser, rep 1: 7350; outcome: inactive

For Dtg (Dpp target gene) [SID104195790], what does the deposit list?
E2F firefly, rep 1: 69559; Renilla normaliser, rep 1: 3564; outcome: inactive

What is on record for psidin (phagocyte signaling impaired) [SID104195452]?
E2F firefly, rep 1: 1.48e5; Renilla normaliser, rep 1: 7740; outcome: inactive

With CG5404 [SID104195585], how do the results read?
E2F firefly, rep 1: 82281; Renilla normaliser, rep 1: 3423; outcome: inactive

With CG33490 [SID104190379], what does the deposit list?
E2F firefly, rep 1: 70474; Renilla normaliser, rep 1: 3467; outcome: inactive

Look-ups from above.
For “Renilla normaliser, rep 1”, psidin (phagocyte signaling impaired) [SID104195452] reads 7740
Value for DAAM (Dishevelled Associated Activator of Morphogenesis) [SID104198271] under “outcome”: inactive
